# The supplement of paper PMC8728848
# The other results are listed elsewhere or left out.
# B1: NKp30 (Homo sapiens), O14931 (protein)
# chain: LWVSQPPEIRTLEGSSAFLPCSFNASQGRLAIGSVTWFRDEVVPGKEVRNGTPEFRGRLAPLASSRFLHDHQAELHIRDVRGHDASIYVCRVEVLGLGVGTGNGTRLVVEKEHPQLG
# Key:
# Assay in all cases: glycan array binding signal (z-score within array); higher = stronger binding
# Conditions in all cases: glycan notation: IUPAC condensed, linker removed
# [1] = molecular target: Gal(b1-4)GlcNAc(b1-6)GalNAc
# Method in brief: (§1)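 Columns mapping to the same glycan were averaged after glycan names were converted to IUPAC-condensed notation. The data come from 3228 arrays in the Consortium for Functional Glycomics database, limited to those with an available protein sequence. Binding is reported as a within-array Z-score averaged across arrays of one protein sequence and across linkers.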
# [2] = molecular target: Gal(b1-4)GlcNAc(b1-6)[Gal(b1-3)]GalNAc
# Method in brief: as §1
# [3] = molecular target: Gal(b1-4)GlcNAc(b1-6)[Gal(b1-3)]GlcNAc
# Method in brief: as §1
# Gal3S(b1-3)GalNAc = molecular target: Gal3S(b1-3)GalNAc
# Method in brief: as §1
# Gal3S(b1-3)GlcNAc = molecular target: Gal3S(b1-3)GlcNAc
# Method in brief: as §1
# [4] = molecular target: Gal3S(b1-3)[Fuc(a1-4)]GlcNAc
# Method in brief: as §1
# Gal3S(b1-4)Glc = molecular target: Gal3S(b1-4)Glc
# Method in brief: as §1
# Gal3S(b1-4)Glc6S = molecular target: Gal3S(b1-4)Glc6S
# Method in brief: as §1
# Gal3S(b1-4)GlcNAc = molecular target: Gal3S(b1-4)GlcNAc
# Method in brief: as §1
# Gal3S(b1-4)GlcNAc6S = molecular target: Gal3S(b1-4)GlcNAc6S
# Method in brief: as §1
# Gal3S6S(b1-4)GlcNAc = molecular target: Gal3S6S(b1-4)GlcNAc
# Method in brief: as §1
# Gal3S6S(b1-4)GlcNAc6S = molecular target: Gal3S6S(b1-4)GlcNAc6S
# Method in brief: as §1
# Gal4S(b1-4)GlcNAc = molecular target: Gal4S(b1-4)GlcNAc
# Method in brief: as §1
# Gal4S6S(b1-4)GlcNAc = molecular target: Gal4S6S(b1-4)GlcNAc
# Method in brief: as §1
# Gal6S(b1-4)Glc = molecular target: Gal6S(b1-4)Glc
# Method in brief: as §1
# Gal6S(b1-4)Glc6S = molecular target: Gal6S(b1-4)Glc6S
# Method in brief: as §1
# Gal6S(b1-4)GlcNAc = molecular target: Gal6S(b1-4)GlcNAc
# Method in brief: as §1
# GalNAc(a1-3)Gal = molecular target: GalNAc(a1-3)Gal
# Method in brief: as §1
# GalNAc(a1-3)GalNAc = molecular target: GalNAc(a1-3)GalNAc
# Method in brief: as §1
# [5] = molecular target: GalNAc(b1-3)Gal(a1-4)Gal(b1-4)GlcNAc
# Method in brief: as §1
# GalNAc(b1-4)GlcNAc = molecular target: GalNAc(b1-4)GlcNAc
# Method in brief: as §1
# Glc(a1-4)Glc = molecular target: Glc(a1-4)Glc
# Method in brief: as §1
# Glc(a1-6)Glc(a1-6)Glc = molecular target: Glc(a1-6)Glc(a1-6)Glc
# Method in brief: as §1
# Glc(b1-4)Glc = molecular target: Glc(b1-4)Glc
# Method in brief: as §1
# Glc(b1-6)Glc = molecular target: Glc(b1-6)Glc
# Method in brief: as §1
# GlcA(b1-3)Gal = molecular target: GlcA(b1-3)Gal
# Method in brief: as §1
# GlcA(b1-6)Gal = molecular target: GlcA(b1-6)Gal
# Method in brief: as §1
# [6] = molecular target: GlcNAc(a1-3)Gal(b1-4)GlcNAc
# Method in brief: as §1
# [7] = molecular target: GlcNAc(a1-6)Gal(b1-4)GlcNAc
# Method in brief: as §1
# [8] = molecular target: GlcNAc(b1-2)Gal(b1-3)GlcNAc
# Method in brief: as §1
# [9] = molecular target: GlcNAc(b1-2)Man(a1-3)[GlcNAc(b1-2)Man(a1-6)]Man(b1-4)GlcNAc(b1-4)GlcNAc
# Method in brief: as §1
# GlcNAc(b1-3)Gal = molecular target: GlcNAc(b1-3)Gal
# Method in brief: as §1
# [10] = molecular target: GlcNAc(b1-3)Gal(b1-3)GalNAc
# Method in brief: as §1
# GlcNAc(b1-3)Gal(b1-4)Glc = molecular target: GlcNAc(b1-3)Gal(b1-4)Glc
# Method in brief: as §1
# [11] = molecular target: GlcNAc(b1-3)Gal(b1-4)GlcNAc
# Method in brief: as §1
# [12] = molecular target: GlcNAc(b1-3)Gal(b1-4)GlcNAc(b1-3)Gal(b1-4)GlcNAc
# Method in brief: as §1
# GlcNAc(b1-3)GalNAc = molecular target: GlcNAc(b1-3)GalNAc
# Method in brief: as §1
# [13] = molecular target: GlcNAc(b1-3)[GlcNAc(b1-4)][GlcNAc(b1-6)]GlcNAc
# Method in brief: as §1
# [14] = molecular target: GlcNAc(b1-3)[GlcNAc(b1-6)]Gal(b1-4)GlcNAc
# Method in brief: as §1
# [15] = molecular target: GlcNAc(b1-3)[GlcNAc(b1-6)]GlcNAc
# Method in brief: as §1
# [16] = molecular target: GlcNAc(b1-4)Gal(b1-4)GlcNAc
# Method in brief: as §1
# [17] = molecular target: GlcNAc(b1-4)GlcNAc(b1-4)GlcNAc
# Method in brief: as §1
# [18] = molecular target: GlcNAc(b1-4)GlcNAc(b1-4)GlcNAc(b1-4)GlcNAc(b1-4)GlcNAc
# Method in brief: as §1
# [19] = molecular target: GlcNAc(b1-4)GlcNAc(b1-4)GlcNAc(b1-4)GlcNAc(b1-4)GlcNAc(b1-4)GlcNAc
# Method in brief: as §1
# [20] = molecular target: GlcNAc(b1-4)[GlcNAc(b1-6)]GalNAc
# Method in brief: as §1
# [21] = molecular target: GlcNAc(b1-6)Gal(b1-4)GlcNAc
# Method in brief: as §1
# GlcNAc(b1-6)GalNAc = molecular target: GlcNAc(b1-6)GalNAc
# Method in brief: as §1
# Kdn(a2-3)Gal(b1-3)GlcNAc = molecular target: Kdn(a2-3)Gal(b1-3)GlcNAc
# Method in brief: as §1
# Kdn(a2-3)Gal(b1-4)GlcNAc = molecular target: Kdn(a2-3)Gal(b1-4)GlcNAc
# Method in brief: as §1
# [22] = molecular target: Man(a1-2)Man(a1-2)Man(a1-3)Man
# Method in brief: as §1
# [23] = molecular target: Man(a1-2)Man(a1-2)Man(a1-3)[Man(a1-2)Man(a1-3)[Man(a1-2)Man(a1-6)]Man(a1-6)]Man(b1-4)GlcNAc(b1-4)GlcNAc
# Method in brief: as §1
# [24] = molecular target: Man(a1-2)Man(a1-2)Man(a1-3)[Man(a1-2)Man(a1-6)[Man(a1-3)]Man(a1-6)]Man(b1-4)GlcNAc(b1-4)GlcNAc
# Method in brief: as §1
# [25] = molecular target: Man(a1-2)Man(a1-2)Man(a1-6)[Man(a1-3)]Man
# Method in brief: as §1
# Man(a1-2)Man(a1-3)Man = molecular target: Man(a1-2)Man(a1-3)Man
# Method in brief: as §1
# [26] = molecular target: Man(a1-2)Man(a1-3)[Man(a1-2)Man(a1-6)]Man
# Method in brief: as §1
# [27] = molecular target: Man(a1-2)Man(a1-3)[Man(a1-3)[Man(a1-6)]Man(a1-6)]Man(b1-4)GlcNAc(b1-4)GlcNAc
# Method in brief: as §1
# [28] = molecular target: Man(a1-2)Man(a1-3)[Man(a1-6)]Man(a1-6)[Man(a1-2)Man(a1-3)]Man(b1-4)GlcNAc(b1-4)GlcNAc
# Method in brief: as §1
# Man(a1-3)[Man(a1-6)]Man = molecular target: Man(a1-3)[Man(a1-6)]Man
# Method in brief: as §1
binder,measurement,setting,value
B1,glycan array binding signal (z-score),[1],-0.924
same,glycan array binding signal (z-score),[2],0.262
same,glycan array binding signal (z-score),[3],-0.864
same,glycan array binding signal (z-score),Gal3S(b1-3)GalNAc,0.973
same,glycan array binding signal (z-score),Gal3S(b1-3)GlcNAc,0.979
same,glycan array binding signal (z-score),[4],0.407
same,glycan array binding signal (z-score),Gal3S(b1-4)Glc,0.281
same,glycan array binding signal (z-score),Gal3S(b1-4)Glc6S,2.3
same,glycan array binding signal (z-score),Gal3S(b1-4)GlcNAc,1.22
same,glycan array binding signal (z-score),Gal3S(b1-4)GlcNAc6S,2.56
same,glycan array binding signal (z-score),Gal3S6S(b1-4)GlcNAc,2.28
same,glycan array binding signal (z-score),Gal3S6S(b1-4)GlcNAc6S,2.38
same,glycan array binding signal (z-score),Gal4S(b1-4)GlcNAc,0.597
same,glycan array binding signal (z-score),Gal4S6S(b1-4)GlcNAc,2.56
same,glycan array binding signal (z-score),Gal6S(b1-4)Glc,0.742
same,glycan array binding signal (z-score),Gal6S(b1-4)Glc6S,2.44
same,glycan array binding signal (z-score),Gal6S(b1-4)GlcNAc,1.02
same,glycan array binding signal (z-score),GalNAc(a1-3)Gal,-0.637
same,glycan array binding signal (z-score),GalNAc(a1-3)GalNAc,-0.861
same,glycan array binding signal (z-score),[5],-0.721
same,glycan array binding signal (z-score),GalNAc(b1-4)GlcNAc,-0.638
same,glycan array binding signal (z-score),Glc(a1-4)Glc,-0.398
same,glycan array binding signal (z-score),Glc(a1-6)Glc(a1-6)Glc,-0.195
same,glycan array binding signal (z-score),Glc(b1-4)Glc,-0.431
same,glycan array binding signal (z-score),Glc(b1-6)Glc,0.138
same,glycan array binding signal (z-score),GlcA(b1-3)Gal,0.249
same,glycan array binding signal (z-score),GlcA(b1-6)Gal,-0.664
same,glycan array binding signal (z-score),[6],-1.04
same,glycan array binding signal (z-score),[7],-0.667
same,glycan array binding signal (z-score),[8],-0.803
same,glycan array binding signal (z-score),[9],-0.919
same,glycan array binding signal (z-score),GlcNAc(b1-3)Gal,-0.803
same,glycan array binding signal (z-score),[10],-0.541
same,glycan array binding signal (z-score),GlcNAc(b1-3)Gal(b1-4)Glc,-0.679
same,glycan array binding signal (z-score),[11],-0.558
same,glycan array binding signal (z-score),[12],-0.728
same,glycan array binding signal (z-score),GlcNAc(b1-3)GalNAc,0.542
same,glycan array binding signal (z-score),[13],-0.854
same,glycan array binding signal (z-score),[14],-0.572
same,glycan array binding signal (z-score),[15],-0.653
same,glycan array binding signal (z-score),[16],-0.76
same,glycan array binding signal (z-score),[17],1.71
same,glycan array binding signal (z-score),[18],-0.274
same,glycan array binding signal (z-score),[19],-0.128
same,glycan array binding signal (z-score),[20],-0.848
same,glycan array binding signal (z-score),[21],-0.869
same,glycan array binding signal (z-score),GlcNAc(b1-6)GalNAc,-0.441
same,glycan array binding signal (z-score),Kdn(a2-3)Gal(b1-3)GlcNAc,-0.28
same,glycan array binding signal (z-score),Kdn(a2-3)Gal(b1-4)GlcNAc,-0.15
same,glycan array binding signal (z-score),[22],-0.642
same,glycan array binding signal (z-score),[23],-0.291
same,glycan array binding signal (z-score),[24],-0.461
same,glycan array binding signal (z-score),[25],-0.41
same,glycan array binding signal (z-score),Man(a1-2)Man(a1-3)Man,-0.176
same,glycan array binding signal (z-score),[26],-0.278
same,glycan array binding signal (z-score),[27],-0.809
same,glycan array binding signal (z-score),[28],0.495
same,glycan array binding signal (z-score),Man(a1-3)[Man(a1-6)]Man,-0.713

# A run of entries from the list above, as a working copy:
binder,measurement,setting,value
B1,glycan array binding signal (z-score),[15],-0.653
same,glycan array binding signal (z-score),[16],-0.76
